# About 5,400 (1.8%) of roughly 300,000 compounds were called active. The shares of active, inactive and inconclusive entries below differ from those in the screen. The call rests on the fitted dose curve; tested in HEK293 cells. Potencies of inconclusive entries are doubtful fits and often do not repeat.
# Test: qHTS for inhibitors of binding or entry into cells for Marburg Virus
# Conditions: Marburg virus pseudotyped entry inhibition, cell reporter; activity change, negative = inhibition: at 37.8 µM (top of the series) unless noted
# On the % scale 0 is the no-effect control and ±100 the full control effect; potency means the concentration at half of the fitted maximal effect.
SMILES,Potency,"activity change, negative = inhibition"
O=C(Nc1cccc(F)c1)NC1CCCCCCC1,"inconclusive: 10 µM [inhibitor, single point]",–
Cn1cnnc1SCc1ccccc1Br,–,inactive: -2.84%
O=C(c1ccccc1F)N1CCCC(C(=O)N2CCc3ccccc3C2)C1 (centres undefined),"inconclusive: 35.5 µM [inhibitor, single point]",–
CCC(C)NC(=O)C1CCN(S(=O)(=O)c2cccnc2)CC1 (centres undefined),–,inactive: -5.09%
Cc1nn(-c2cccc([N+](=O)[O-])c2)c(N)c1-c1ccccc1,"inconclusive: 35.5 µM [inhibitor, single point]",–
CCN(CC(=O)Nc1ccc(NC(C)=O)cc1)C(=O)c1ccccc1CCc1ccccc1,"inconclusive: 7.08 µM [inhibitor, full curve, poor fit]",–
O=C(Nc1ccc(S(=O)(=O)NCC2CCCO2)cc1)c1ccc(F)cc1 (centres undefined),–,inactive: 0.454% [at 46.1 µM]
O=c1c2c(-c3ccc([N+](=O)[O-])cc3)csc2nc2n1CCCCC2,"inconclusive: 8.91 µM [inhibitor, partial curve]",–
Cc1ccc(S(=O)(=O)N2CCCCC2)cc1C(=O)OCC(=O)N1c2ccccc2NC(=O)C1(C)C,"inconclusive: 3.55 µM [inhibitor, single point]",–
COc1cnc(-c2ccccc2)nc1Oc1cccc(C)c1C,"inconclusive: 12.6 µM [inhibitor, single point]",–
O=C(O)C1=NOC(CNc2ncc(C(F)(F)F)cc2Cl)C1 (centres undefined),–,inactive: -10.7% [at 46.1 µM]
CN1CCN(Cc2nc3c(c(=O)n(C)c(=O)n3C)n2CCCc2ccccc2)CC1,–,inactive: -27.6%
Cc1ccc2nc(-c3ccncc3)cc(C(=O)Nc3ccc4c(c3)OCCO4)c2c1,"inconclusive: 11.2 µM [inhibitor, partial curve]",–
Cc1ccc(Cn2ccsc2=NC(=O)COC(=O)C(C)C)cc1,–,inactive: -0.305% [at 46.1 µM]
O=C(NCC1CCN(Cc2ccccc2F)CC1)Nc1cc(F)ccc1F,"inconclusive: 35.5 µM [inhibitor, partial curve, poor fit]",–
COc1ccc(/C(C)=N/Nc2ccccc2Cl)c(O)c1,"inconclusive: 5.01 µM [activator, single point]",–
Cc1ccc(OCC(=O)Nc2ccccc2N2CCCC2)c(C)c1,"inconclusive: 2.82 µM [inhibitor, full curve]",–
O=C(NCc1ccccn1)c1ccc(OC2CCN(Cc3ccccc3O)CC2)cc1,–,inactive: -16.3%
COc1ccc(CCNC(=O)COc2ccc(S(=O)(=O)NC3CCCCC3)cc2Cl)cc1,"inconclusive: 29.1 µM [inhibitor, single point]",–
CCOC(=O)c1ccc(NC(=O)CN2C(=O)COc3ccc(Cl)cc32)cc1,–,inactive: 9.33% [at 46.1 µM]
CC(NC(=O)c1cccs1)C(c1cccs1)N1CCN(Cc2ccccc2)CC1 (centres undefined),"inconclusive: 20.6 µM [inhibitor, partial curve, poor fit]",–
CCN(Cc1ccccc1)C(c1ccc(Cl)cc1)c1nnnn1C(C)(C)C (centres undefined),"inconclusive: 0.891 µM [inhibitor, full curve, poor fit]",–

# A second format for part of the listing above:
SMILES	Potency	activity change, negative = inhibition
O=C(Nc1cccc(F)c1)NC1CCCCCCC1	inconclusive: 10 µM [inhibitor, single point]	–
Cn1cnnc1SCc1ccccc1Br	–	inactive: -2.84%
O=C(c1ccccc1F)N1CCCC(C(=O)N2CCc3ccccc3C2)C1 (centres undefined)	inconclusive: 35.5 µM [inhibitor, single point]	–

# (cont.)

SMILES,Potency,"activity change, negative = inhibition"
Cc1ccc(-c2cc(C(=O)NCC(c3ccccc3)N(C)C)c3ccccc3n2)o1 (centres undefined),"inconclusive: 15.8 µM [inhibitor, single point]",–
CC1CCN(S(=O)(=O)c2cccc(C(=O)N(Cc3ccccc3)c3ccccn3)c2)CC1,"inconclusive: 1.26 µM [inhibitor, full curve, poor fit]",–
COc1cccc(NC(=O)c2ccc(NC(=O)C(C)C)cc2)c1,–,inactive: 1.7% [at 46.1 µM]
CCc1cccc2c(C(=O)C(NCCCOC)c3ccccc3)c[nH]c12 (centres undefined),active: 12.6 µM,–
COC(=O)c1cc(OC)c(OC)cc1NC(=O)c1cc(OC)cc(OC)c1,"inconclusive: 0.631 µM [activator, full curve, poor fit]",–
CC(=O)c1cccc(OCC(=O)NC2CCCCCC2)c1,"inconclusive: 0.794 µM [activator, full curve, poor fit]",–
COc1ccc(NC(=O)CC2C(=O)N(c3cccc(OC)c3)C(=O)N2CCC(C)C)cc1 (centres undefined),–,inactive: -15.2%
O=C(c1ccccc1)c1cccn1CC(=O)N1CCc2ccccc2C1,"inconclusive: 35.5 µM [inhibitor, single point]",–
N#Cc1ccccc1OCC(=O)Nc1ccc2c(c1)OCCO2,"inconclusive: 12.6 µM [activator, single point]",–
Cc1[nH]c2ccccc2c1C(c1ccncc1)N1CCN(c2ccc(F)cc2)CC1 (centres undefined),"inconclusive: 0.1 µM [inhibitor, full curve, poor fit]",–
Fc1ccc(COc2ccc(/C=N/n3cnnc3)cc2)cc1,–,inactive: 10.9%
Cc1ccc(NC(=O)Nc2ccc(F)c(Cl)c2)cc1,"inconclusive: 3.16 µM [activator, partial curve, poor fit]",–
Cc1cccc(N2CCN(C3(c4ccccc4)C(=O)c4ccccc4C3=O)CC2C)c1 (centres undefined),–,inactive: -2.2% [at 46.1 µM]
Cc1ccc(C)c(NC(=S)N/N=C2/CCCCc3ccccc32)c1,"inconclusive: 22.4 µM [inhibitor, single point]",–
CSc1nsc(SCC(=O)Nc2ccc(F)cc2F)n1,"inconclusive: 10 µM [activator, partial curve, poor fit]",–
O=c1[nH]c(CN2CCN(C/C=C/c3ccccc3)CC2)nc2cc(Cl)ccc12,active: 4.11 µM,–
O=C(c1ccco1)N1CCN(c2ncnc3scc(-c4cccs4)c23)CC1,–,inactive: -7.71%
Cc1ccc(/C=N/n2c(-c3ccc(Cl)cc3)n[nH]c2=S)s1,"inconclusive: 8.91 µM [inhibitor, partial curve, poor fit]",–
O=C(Nc1ccc(NC(=O)c2cccs2)c(Cl)c1)c1ccco1,"inconclusive: 3.16 µM [activator, single point]",–
COc1ccc(OCC(=O)O/N=C(\N)Cc2ccc(Cl)cc2Cl)cc1,"inconclusive: 35.5 µM [activator, single point]",–
CC1CCC(=C(C#N)c2nc(-c3cc4ccccc4oc3=O)cs2)CC1 (centres undefined),"inconclusive: 7.3 µM [activator, partial curve, poor fit]",–
CCOc1ccc(NC(=S)NC(=O)/C=C/c2ccc(C)cc2)c([N+](=O)[O-])c1,"inconclusive: 35.5 µM [inhibitor, partial curve, poor fit]",–

# From PubChem BioAssay AID540276 (National Center for Advancing Translational Sciences (NCATS), 2011)
